Source: article PMC8558168, “Reverse chemical ecology in a moth: machine learning on odorant receptors identifies new behaviorally active agonists” (Cellular and Molecular Life Sciences: CMLS, 2021)

Each compound was assayed on T1, SlitOR25 (assay: single sensillum recording, Drosophila ab3A neurons). Conditions: agonist; 10 μL of 10^-2 dilution in paraffin oil on filter paper, 500 ms pulse.
T1 construct: gene OR25; full-length UAS transgene driven by Or22a-Gal4 in Drosophila melanogaster Δhalo ab3A empty neurons; endogenous fly Orco; with Odorant receptor coreceptor (Drosophila melanogaster, endogenous)
Format: cell-based, Spodoptera littoralis

Compound	SSR response at 10^-2 dilution
N#CCc1ccccc1 [benzyl cyanide]	> 100 spikes.s^-1
CCCCCC(C)O (centres unmarked) [2-heptanol]	> 100 spikes.s^-1

The compounds below were run on T2, SlitOR24 in the same assay as above. Conditions: agonist; 10 μL of 10^-2 dilution in paraffin oil on filter paper, 500 ms pulse.
T2 construct: gene OR24; full-length UAS transgene driven by Or22a-Gal4 in Drosophila melanogaster Δhalo ab3A empty neurons; endogenous fly Orco; with Odorant receptor coreceptor (Drosophila melanogaster, endogenous)
Format: cell-based, Spodoptera littoralis

Compound	SSR response at 10^-2 dilution
CCCCCO [1-pentanol]	> 100 spikes.s^-1
CC/C=C/CCO [(E)-3-hexenol]	> 100 spikes.s^-1
CCC/C=C\CO [(Z)-2-hexenol]	> 100 spikes.s^-1
CCCCCC(C)O (centres unmarked) [2-heptanol]	> 100 spikes.s^-1
OCCc1ccccc1 [2-phenylethanol]	> 100 spikes.s^-1
CCCCC(C)O (centres unmarked) [2-hexanol]	> 100 spikes.s^-1
